Measurements reported in PubChem BioAssay AID504764 (Drosophila RNAi Screening Center, 2011)
In all, the deposit lists about 22,000 reagents; this is an unselected part of those that have a named target and a result. In the full data, 403 (1.9%) got an active call. 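Unnormalised raw counts per well; ratio z-scores behind the hit calls and whether each hit raises or lowers signal are not deposited.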 Names joined by + are all predicted targets of the reagent. The record does not give: the amount of reagent.

Aim: 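Genes whose knock-down alters Notch-dependent transcription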 (primary screen)
Cells: Drosophila Kc167 cells
Reagent: long dsRNA against Drosophila genes
Duration: about 5 days (4 days dsRNA, then 24 h after transfection)
Conditions: transfection of constitutively active membrane-tethered Notch lacking the extracellular domain, read 24 h later
Measured: 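Firefly luciferase from an E(spl)m3 reporter with active Notch, plus control-promoter and uninduced reporter wells for normalisation; unnormalised counts, duplicate wells a and b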
Reading the numbers: induced reporter light, run 1, well a and induced reporter light, run 1, well b: higher = more light from the Notch target reporter with active Notch; control promoter light, run 1, well a and control promoter light, run 1, well b: higher = more light from the viral control promoter (cell number, transfection, viability); uninduced reporter light, run 1, well a: higher = more light from the Notch target reporter without active Notch
Active means: 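Wells with low control signal or poorly matching duplicates excluded; duplicates averaged; per source plate, z beyond ±2 for induced/control log2 ratio or beyond ±1.8 for induced/uninduced marks a hit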
Meaning of the calls: active = modifier hit (raised or lowered Notch signal); inactive = not a hit

gene	amplicon	induced reporter light, run 1, well a	induced reporter light, run 1, well b	control promoter light, run 1, well a	control promoter light, run 1, well b	uninduced reporter light, run 1, well a	Call
Vps2 (GeneID 43164)	DRSC14886	75820	95170	2.38e5	1.99e5	4420	active
Obsc (GeneID 3346201)	DRSC04301	1.63e5	1.78e5	2.34e5	2.45e5	12055	inactive
Obsc (GeneID 3346201)	DRSC04302	1.84e5	1.47e5	1.45e5	1.49e5	13580	inactive
Obsc (GeneID 3346201)	DRSC04303	1.98e5	1.75e5	1.59e5	1.64e5	14470	inactive
Obsc (GeneID 3346201)	DRSC04430	1.44e5	1.51e5	1.49e5	1.54e5	11050	inactive
CG13059 (GeneID 39803)	DRSC09942	1.81e5	1.97e5	2.19e5	2.29e5	13510	inactive
dpy (GeneID 318824)	DRSC00233	1.27e5	1.18e5	1.40e5	1.64e5	8590	inactive
dpy (GeneID 318824)	DRSC00234	1.46e5	1.25e5	1.54e5	1.64e5	8795	inactive
dpy (GeneID 318824)	DRSC00472	1.57e5	1.80e5	2.17e5	1.90e5	10895	inactive
CG6962 (GeneID 41436)	DRSC16153	58595	68440	38895	44385	5660	inactive
lbe (GeneID 42542)	DRSC16985	2.04e5	1.46e5	2.04e5	2.01e5	11232	inactive
MsR2 + CG13802 (retired record)	DRSC08336	1.22e5	1.01e5	1.05e5	92880	6940	active
MsR2 + CG13802 (retired record)	DRSC08337	93180	1.15e5	1.49e5	1.00e5	5860	inactive
CG15247 (GeneID 31919)	DRSC17976	1.04e5	1.07e5	2.08e5	1.97e5	8300	inactive
CG17486 (GeneID 3355138)	DRSC07752	91730	72070	1.43e5	1.47e5	6575	inactive
isoQC (GeneID 40270)	DRSC11790	1.32e5	1.22e5	1.30e5	1.02e5	17155	inactive
NKAIN (GeneID 37979)	DRSC04531	1.74e5	2.07e5	1.61e5	2.00e5	13020	inactive
CG7924 (GeneID 39574)	DRSC10931	1.20e5	1.55e5	66850	95380	11838	inactive
FIG4 (GeneID 33658)	DRSC00515	1.46e5	1.50e5	1.69e5	1.83e5	13770	inactive
CG7252 (GeneID 39353)	DRSC10789	1.18e5	1.11e5	66935	34700	9050	inactive
CG7252 (GeneID 39353)	DRSC21492						inactive
DIP-eta (GeneID 33793)	DRSC02342	1.36e5	1.53e5	1.45e5	1.27e5	8015	inactive
unc80 (GeneID 43324)	DRSC15329	1.43e5	1.80e5	2.16e5	1.86e5	13995	inactive
BuGZ (GeneID 35004)	DRSC02642	1.56e5	1.81e5	70500	82715	10055	active
BuGZ (GeneID 35004)	DRSC02643	1.36e5	1.47e5	1.32e5	1.44e5	9975	inactive
Osi22 (GeneID 41632)	DRSC16442	2.34e5	2.76e5	2.35e5	2.50e5	18115	inactive
CG3984 (GeneID 41821)	DRSC15530	1.90e5	2.11e5	1.84e5	1.91e5	17710	inactive
CG33281 (GeneID 2768938)	DRSC00421	1.57e5	1.52e5	1.65e5	1.76e5	8820	inactive
htk (GeneID 32877)	DRSC20029	1.29e5	1.48e5	78300	81645	12205	active
htk (GeneID 32877)	DRSC20031	1.15e5	1.38e5	92530	53700	8550	inactive
Rpn13 (GeneID 36545)	DRSC06379	42515	48625	69000	71415	6120	inactive
CG4377 (GeneID 37489)	DRSC04467	2.17e5	2.42e5	1.98e5	1.73e5	15725	inactive
CG14861 (GeneID 41810)	DRSC14984	2.17e5	2.20e5	2.27e5	2.48e5	15640	inactive
Poxn (GeneID 36741)	DRSC05589	1.76e5	1.72e5	2.22e5	2.39e5	16315	inactive
Poxn (GeneID 36741)	DRSC07512	96540	1.21e5	1.44e5	1.72e5	10210	inactive
NaPi-III (GeneID 39255)	DRSC10893	1.64e5	1.61e5	97815	45045	12015	inactive
NaPi-III (GeneID 39255)	DRSC10894	15642	15200	14910	19875	3420	inactive
CG30440 (GeneID 35496)	DRSC04775	1.24e5	1.43e5	1.55e5	1.91e5	8655	inactive
CG30440 (GeneID 35496)	DRSC04845	1.78e5	1.91e5	1.71e5	1.74e5	12628	inactive
CG30440 (GeneID 35496)	DRSC04855	2.24e5	1.91e5	1.76e5	1.88e5	15320	inactive
Jon66Ci (GeneID 38952)	DRSC10772	1.65e5	1.56e5	1.66e5	1.31e5	5830	inactive
Mst98Ca (GeneID 47854)	DRSC16749	1.80e5	1.94e5	2.26e5	2.26e5	12010	inactive
Ssu72 (GeneID 32973)	DRSC19572	1.06e5	90635	1.15e5	1.16e5	10305	inactive
RpL23A (GeneID 38208)	DRSC08694	44115	39235	62545	65915	2565	inactive
Semp1 (GeneID 34914)	DRSC01874	1.28e5	1.22e5	1.06e5	1.12e5	11520	inactive
CG10254 (GeneID 42793)	DRSC14153	1.74e5	1.63e5	2.14e5	2.78e5	13855	inactive
CG32719 (GeneID 318169)	DRSC17525	58120	68970	65345	71110	5570	inactive
CG9815 (GeneID 37710)	DRSC04567	1.53e5	1.32e5	1.08e5	1.26e5	12500	inactive
SmydA-1 (GeneID 36581)	DRSC07200	1.83e5	1.19e5	1.47e5	1.31e5	11080	inactive
Hus1-like (GeneID 40598)	DRSC12353	1.27e5	1.32e5	1.41e5	1.46e5	8470	inactive
